Results published in US20230314433A1 (KURUME UNIVERSITY, published 2023).
These are yes or no findings as the source states them, for the method shown. Some entries that bind do so weakly or less than the wild type.

How the values were obtained:
[1] = target: T1, human MDA5 protein (full-length, about 120 kDa) (human) (UniProt Q9BYX4); experiment: Western blot of normal lung and lung cancer tissues, mAb at 1 ug/mL
T1 sequence: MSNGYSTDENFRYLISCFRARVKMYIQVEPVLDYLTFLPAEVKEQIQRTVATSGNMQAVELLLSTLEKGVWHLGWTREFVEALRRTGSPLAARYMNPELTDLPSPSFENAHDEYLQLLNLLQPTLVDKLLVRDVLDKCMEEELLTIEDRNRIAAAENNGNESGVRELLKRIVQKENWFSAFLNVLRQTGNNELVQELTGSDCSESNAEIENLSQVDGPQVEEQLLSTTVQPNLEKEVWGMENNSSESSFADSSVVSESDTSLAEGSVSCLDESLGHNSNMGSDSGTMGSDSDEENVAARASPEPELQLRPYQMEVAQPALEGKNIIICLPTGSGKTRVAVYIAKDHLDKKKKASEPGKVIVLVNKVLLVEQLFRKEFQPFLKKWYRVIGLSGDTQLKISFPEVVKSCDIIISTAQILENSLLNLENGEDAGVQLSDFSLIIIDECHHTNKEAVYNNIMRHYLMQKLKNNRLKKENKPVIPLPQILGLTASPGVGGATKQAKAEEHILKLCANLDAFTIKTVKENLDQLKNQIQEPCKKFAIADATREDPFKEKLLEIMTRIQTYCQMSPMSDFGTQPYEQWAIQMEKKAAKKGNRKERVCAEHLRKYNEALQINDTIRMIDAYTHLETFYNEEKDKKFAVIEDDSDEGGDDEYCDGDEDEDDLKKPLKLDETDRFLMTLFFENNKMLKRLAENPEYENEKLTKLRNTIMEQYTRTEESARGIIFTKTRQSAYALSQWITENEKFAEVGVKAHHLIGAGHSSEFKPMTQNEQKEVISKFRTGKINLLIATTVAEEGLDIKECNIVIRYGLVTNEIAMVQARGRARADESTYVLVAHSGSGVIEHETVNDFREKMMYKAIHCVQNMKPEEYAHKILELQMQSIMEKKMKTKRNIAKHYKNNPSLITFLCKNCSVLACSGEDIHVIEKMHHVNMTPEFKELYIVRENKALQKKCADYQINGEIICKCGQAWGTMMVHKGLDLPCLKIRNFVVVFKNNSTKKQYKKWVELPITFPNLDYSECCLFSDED

[2] = target: T1, human MDA5 protein (full-length, about 120 kDa) (human); experiment: immunohistochemistry of human tonsil and pancreas sections, H27 at 1 ug/mL
[3] = target: T2, recombinant human MDA5 protein (human, UniProt Q9BYX4 1-1025); experiment: electrochemiluminescence sandwich immunoassay (MSD), biotin-labelled H27 as secondary (detection) mAb
T2 construct: Expressed in SF9 cells with baculovirus; also called pPSC8/human MDA5 product; MDA5 standard; not shown: N-terminal 6X His tag, GST and turbo 3C protease cleavage site
T2 sequence: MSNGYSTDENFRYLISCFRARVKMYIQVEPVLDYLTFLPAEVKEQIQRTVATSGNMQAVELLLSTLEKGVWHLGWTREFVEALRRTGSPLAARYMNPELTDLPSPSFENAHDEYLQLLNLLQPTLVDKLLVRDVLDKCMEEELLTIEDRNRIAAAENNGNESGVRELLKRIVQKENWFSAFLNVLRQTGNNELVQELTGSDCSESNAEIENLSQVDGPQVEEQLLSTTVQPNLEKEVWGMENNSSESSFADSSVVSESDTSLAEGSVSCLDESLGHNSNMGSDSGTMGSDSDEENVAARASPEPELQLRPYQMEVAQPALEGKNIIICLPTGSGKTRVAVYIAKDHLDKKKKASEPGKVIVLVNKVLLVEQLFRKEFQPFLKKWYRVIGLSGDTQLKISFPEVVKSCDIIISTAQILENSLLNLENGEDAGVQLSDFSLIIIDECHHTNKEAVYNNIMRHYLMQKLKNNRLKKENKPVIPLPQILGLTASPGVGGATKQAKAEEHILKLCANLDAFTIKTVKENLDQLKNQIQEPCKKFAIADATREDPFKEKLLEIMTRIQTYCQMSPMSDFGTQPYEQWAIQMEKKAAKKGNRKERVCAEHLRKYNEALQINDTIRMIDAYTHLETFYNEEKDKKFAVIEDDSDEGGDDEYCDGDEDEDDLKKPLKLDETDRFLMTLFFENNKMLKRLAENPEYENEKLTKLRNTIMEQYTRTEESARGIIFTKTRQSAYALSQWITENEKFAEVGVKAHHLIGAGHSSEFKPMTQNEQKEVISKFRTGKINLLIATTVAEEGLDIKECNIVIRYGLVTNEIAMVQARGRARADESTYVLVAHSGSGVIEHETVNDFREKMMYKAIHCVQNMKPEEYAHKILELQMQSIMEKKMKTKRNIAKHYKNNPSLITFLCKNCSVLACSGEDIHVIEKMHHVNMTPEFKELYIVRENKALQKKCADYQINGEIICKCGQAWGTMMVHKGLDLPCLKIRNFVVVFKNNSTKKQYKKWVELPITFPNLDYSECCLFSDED

Measured: binding

B1: mouse anti-human MDA5 monoclonal antibody (H27) (antibody, V domains shown)
VH: QIQLVQSGPELKKPGETVKISCKASGYTFTDYSMHWVKQAPGKGLKWMGWINTETGDPKYADDFKGRFVFSLETSASTAYLQINNLKNEDTASYFCAVATNYWGQGTTLTVSS
VL: DIQMTQSPSSLSASLGERVSLTCRASQDIGSSLNWLQQKPDGAIKRLISATSSLDSGVPKRFSGSRSGSDYSLTISSLESEDFVDYFCLQYASSPLTFGAGTKLELR
binds: all assays above
